Results on 74 compounds are retold here after US10647687B2, “Spiropyrazine derivatives as inhibitors of non-apoptotic regulated cell-death” (Helmholtz Zentrum München Deutsches Forschungszentrum für …, priority 2014, dated 2020).

This data set has as its system Pfa1 cells. The data set is described as follows: Cellular toxicity, Pfa1 cells without TAM (Example B.5). It is filed as cell-based, mouse. To be noted: TC50 divided by the corresponding IC50 from example B.4 (Pfa1/TAM). From the text: An estimate of the toxicity for compounds disclosed herein was obtained by using the same assay as described in Example B.4, but without the addition of TAM. […] Such TC50 values obtained for certain compounds disclosed herein, together with an approximate therapeutic window (estimated by dividing each TC50 by the corresponding IC50 determined from example B.4) are shown in Table 3 and Table 4.

Consider `CCCCCCCC(=O)N1CCC2(CC1)Nc1ccccc1N=C2NCc1ccccc1` [N-216], for which the “Therapeutic Window (approx.. fold)” value is over 20 fold.
As to `Cc1cc(C)cc(CNC2=Nc3ccccc3NC23CCNCC3)c1` [N-217], the “Therapeutic Window (approx.. fold)” value was over 200 fold.
With `CC(NC1=Nc2ccccc2NC12CCNCC2)c1ccccc1` (centres unmarked) [N-218], the “Therapeutic Window (approx.. fold)” value is listed as over 100 fold.
Then `Clc1cccc(CNC2=Nc3cc4c(cc3NC23CCNCC3)OCCO4)c1` [N-219], with over 50 fold; and `c1ccc(C(CNC2=Nc3ccccc3NC23CCNCC3)c2ccccc2)cc1` [N-220], with over 200 fold.
Then `Fc1ccc(CNC2=Nc3ccccc3NC23CCNCC3)c(F)c1` [N-221], with over 200 fold; and `CC(CCc1ccccc1)NC1=Nc2ccccc2NC12CCNCC2` (centres unmarked) [N-222], with over 200 fold; and `Fc1cc2c(cc1F)NC1(CCNCC1)C(NCc1ccccc1)=N2` [N-223], with over 1000 fold.
Consider `Cc1cccc(CNC2=Nc3cc(Cl)c(Cl)cc3NC23CCNCC3)c1` [N-224], for which the “Therapeutic Window (approx.. fold)” value is given as over 1000 fold.
As to `c1ccc(CCCCNC2=Nc3ccccc3NC23CCNCC3)cc1` [N-225], the “Therapeutic Window (approx.. fold)” value was over 50 fold.
Take `c1ccc(CCNC2=Nc3ccccc3NC23CCNCC3)cc1` [N-226]: the “Therapeutic Window (approx.. fold)” value is over 200 fold.
For the compound `CC(C)(C)c1ccc(CNC2=Nc3ccccc3NC23CCNCC3)cc1` [N-227], the “Therapeutic Window (approx.. fold)” value is over 200 fold.
As to `c1ccc(CCCNC2=Nc3ccccc3NC23CCNCC3)cc1` [N-228], the “Therapeutic Window (approx.. fold)” value is recorded as over 50 fold.
As for `CN1CCC2(CC1)Nc1cc(F)c(F)cc1N=C2NCc1ccccc1` [N-229], the “Therapeutic Window (approx.. fold)” value is on record as over 50 fold.
As for `CN1CCC2(CC1)Nc1cc(Cl)c(Cl)cc1N=C2NCc1ccccc1` [N-230], the “Therapeutic Window (approx.. fold)” value is listed as over 200 fold.
Take `Fc1cccc(F)c1CNC1=Nc2ccccc2NC12CCNCC2` [N-231]: the “Therapeutic Window (approx.. fold)” value is listed as over 200 fold.
Regarding `Cc1cc2c(cc1C)NC1(CCNCC1)C(NCc1ccc(Cl)c(Cl)c1)=N2` [N-232], the “Therapeutic Window (approx.. fold)” value is listed as over 1000 fold.
As to `Cc1cc2c(cc1C)NC1(CCN(C)CC1)C(NCc1ccccc1)=N2` [N-233], the “Therapeutic Window (approx.. fold)” value is reported as over 50 fold.
As for `CCCCCCCCN1CCC2(CC1)Nc1ccccc1N=C2NCc1ccccc1` [N-234], the “Therapeutic Window (approx.. fold)” value is over 50 fold.
As to `Cc1cccc(CNC2=Nc3cc(C)c(C)cc3NC23CCNCC3)c1` [N-235], the “Therapeutic Window (approx.. fold)” value is recorded as over 20 fold.
As for `Clc1cc2c(cc1Cl)NC1(CCCNCC1)C(NCc1ccccc1)=N2` (centres unmarked) [N-236], the “Therapeutic Window (approx.. fold)” value was over 50 fold.
Take `CC1CC2(CCN1)Nc1ccccc1N=C2NCc1cccc(Cl)c1` (centres unmarked) [N-239]: the “Therapeutic Window (approx.. fold)” value is over 10 fold.
As to `CC1CC2(CCN1)Nc1ccccc1N=C2NCc1ccccc1` (centres unmarked) [N-240], the “Therapeutic Window (approx.. fold)” value is over 50 fold.
Regarding `Cc1cc2c(cc1C)NC1(CCNCC1)C(NCc1cccc(C(F)(F)F)c1)=N2` [N-251], the “Therapeutic Window (approx.. fold)” value is on record as over 10 fold.
Then `CC1CN(C)CCC12Nc1ccccc1N=C2NCc1ccccc1` (centres unmarked) [N-256], with over 20 fold; and `Cc1cc2c(cc1C)NC1(CCNCC1)C(NCc1cccc(F)c1)=N2` [N-257], with over 20 fold; and `Clc1ccc(CNC2=Nc3cc(Cl)c(Cl)cc3NC23CCNCC3)cc1Cl` [N-258], with over 2 fold.
For the compound `Fc1cc2c(cc1F)NC1(CCNCC1)C(NCc1ccccc1Cl)=N2` [N-259], the “Therapeutic Window (approx.. fold)” value is over 50 fold.
Then `FC(F)(F)c1cccc(CNC2=Nc3cc(Cl)c(Cl)cc3NC23CCNCC3)c1` [N-260], with over 20 fold; and `CCCCCCCCCCCCN1CCC2(CC1)Nc1ccccc1N=C2NCc1ccccc1` [N-261], with over 20 fold; and `Cc1cc(C)cc(CNC2=Nc3cc(C)c(C)cc3NC23CCNCC3)c1` [N-262], with over 10 fold.
For the compound `Clc1ccccc1CNC1=Nc2ccccc2NC12CCOCC2` [O/S-1], the “Therapeutic Window (approx.. fold)” value is over 100 fold.
Take `Clc1cccc(CNC2=Nc3ccccc3NC23CCOCC3)c1` [O/S-2]: the “Therapeutic Window (approx.. fold)” value is on record as over 50 fold.
In the case of `Clc1ccc(CNC2=Nc3ccccc3NC23CCOCC3)cc1` [O/S-3], the “Therapeutic Window (approx.. fold)” value is over 50 fold.
Regarding `Fc1cccc(CNC2=Nc3ccccc3NC23CCOCC3)c1` [O/S-5], the “Therapeutic Window (approx.. fold)” value was over 50 fold.
As for `Cc1cccc(CNC2=Nc3ccccc3NC23CCOCC3)c1` [O/S-11], the “Therapeutic Window (approx.. fold)” value was over 50 fold.
Then `COc1cccc(CNC2=Nc3ccccc3NC23CCOCC3)c1` [O/S-14], with over 20 fold; and `FC(F)(F)c1cccc(CNC2=Nc3ccccc3NC23CCOCC3)c1` [O/S-23], with over 100 fold.
In the case of `Fc1cc(Cl)ccc1CNC1=Nc2ccccc2NC12CCOCC2` [O/S-61], the “Therapeutic Window (approx.. fold)” value was over 50 fold.
In the case of `Clc1cccc(CCNC2=Nc3ccccc3NC23CCOCC3)c1` [O/S-79], the “Therapeutic Window (approx.. fold)” value was over 50 fold.
For the compound `Clc1cccc(CNC2=Nc3cc(Cl)c(Cl)cc3NC23CCOCC3)c1` [O/S-94], the “Therapeutic Window (approx.. fold)” value was over 200 fold.
The value for `Clc1ccccc1CNC1=Nc2ccccc2NC12CCSCC2` [O/S-167] was over 100 fold.
`Clc1cccc(CNC2=Nc3ccccc3NC23CCSCC3)c1` [O/S-168]: the “Therapeutic Window (approx.. fold)” value is over 200 fold.
For the compound `Clc1ccc(CNC2=Nc3ccccc3NC23CCSCC3)cc1` [O/S-169], the “Therapeutic Window (approx.. fold)” value is over 50 fold.
Regarding `FC(F)(F)c1cccc(CNC2=Nc3ccccc3NC23CCSCC3)c1` [O/S-189], the “Therapeutic Window (approx.. fold)” value is given as over 20 fold.
The value for `c1ccc(CNC2=Nc3ccccc3NC23CCOCC3)cc1` [O/S-337] was over 20 fold; that for `c1ccc(CNC2=Nc3ccccc3NC23CCSCC3)cc1` [O/S-338] was over 100 fold; that for `Clc1cc2c(cc1Cl)NC1(CCOCC1)C(NCc1ccccc1)=N2` [O/S-339] was over 1000 fold.
As for `Cc1cc2c(cc1C)NC1(CCOCC1)C(NCc1ccccc1)=N2` [O/S-340], the “Therapeutic Window (approx.. fold)” value was over 100 fold.
As for `Fc1cccc(F)c1CNC1=Nc2ccccc2NC12CCOCC2` [O/S-341], the “Therapeutic Window (approx.. fold)” value is listed as over 50 fold.
Turning to `Cc1cccc(CNC2=Nc3cc(Cl)c(Cl)cc3NC23CCOCC3)c1` [O/S-342], the “Therapeutic Window (approx.. fold)” value was over 500 fold.
With `c1ccc(CCCNC2=Nc3ccccc3NC23CCOCC3)cc1` [O/S-343], the “Therapeutic Window (approx.. fold)” value is on record as over 20 fold.
For `Cc1cc(C)cc(CNC2=Nc3ccccc3NC23CCOCC3)c1` [O/S-344], the “Therapeutic Window (approx.. fold)” value is over 50 fold.
The value for `Clc1ccc(CNC2=Nc3ccccc3NC23CCOCC3)cc1Cl` [O/S-345] was over 500 fold; that for `Fc1cc2c(cc1F)NC1(CCOCC1)C(NCc1ccccc1)=N2` [O/S-346] was over 200 fold; that for `c1ccc(CCNC2=Nc3ccccc3NC23CCOCC3)cc1` [O/S-347] was over 20 fold.
Consider `CC(NC1=Nc2ccccc2NC12CCOCC2)c1ccccc1` (centres unmarked) [O/S-348], for which the “Therapeutic Window (approx.. fold)” value is listed as over 20 fold.
Then `Clc1cc2c(cc1Cl)NC1(CCSCC1)C(NCc1ccccc1)=N2` [O/S-349], with over 200 fold; and `CC(C)(C)c1ccc(CNC2=Nc3ccccc3NC23CCOCC3)cc1` [O/S-350], with over 100 fold; and `Fc1cccc(F)c1CNC1=Nc2ccccc2NC12CCSCC2` [O/S-351], with over 100 fold.
The value for `c1ccc(C(CNC2=Nc3ccccc3NC23CCOCC3)c2ccccc2)cc1` [O/S-352] was over 50 fold; that for `CC(CCc1ccccc1)NC1=Nc2ccccc2NC12CCOCC2` (centres unmarked) [O/S-353] was over 50 fold; that for `Clc1ccc(CNC2=Nc3ccccc3NC23CCOCC3)c(Cl)c1` [O/S-354] was over 200 fold.
`Fc1ccc(CNC2=Nc3ccccc3NC23CCOCC3)c(F)c1` [O/S-355]: the “Therapeutic Window (approx.. fold)” value is over 20 fold.
With `c1ccc(CCCNC2=Nc3ccccc3NC23CCSCC3)cc1` [O/S-356], the “Therapeutic Window (approx.. fold)” value was over 20 fold.
Then `Cc1cc(C)cc(CNC2=Nc3ccccc3NC23CCSCC3)c1` [O/S-357], with over 20 fold; and `c1ccc(CCCCNC2=Nc3ccccc3NC23CCOCC3)cc1` [O/S-358], with over 5 fold.
Then `Fc1ccc(CNC2=Nc3ccccc3NC23CCSCC3)c(F)c1` [O/S-359], with over 5 fold.
Take `O=S1(=O)CCC2(CC1)Nc1ccccc1N=C2NCc1ccccc1` [O/S-363]: the “Therapeutic Window (approx.. fold)” value is over 5 fold.
Then `FC1(F)Oc2cc3c(cc2O1)NC1(CCOCC1)C(NCc1ccccc1)=N3` [O/S-366], with over 200 fold; and `CC(NC1=Nc2ccccc2NC12CCSCC2)c1ccccc1` (centres unmarked) [O/S-367], with over 20 fold.
With `c1ccc(CCNC2=Nc3ccccc3NC23CCSCC3)cc1` [O/S-368], the “Therapeutic Window (approx.. fold)” value is on record as over 10 fold.
In the case of `Cc1cc2c(cc1C)NC1(CCSCC1)C(NCc1ccccc1)=N2` [O/S-369], the “Therapeutic Window (approx.. fold)” value was over 100 fold.
As for `O=S1(=O)CCC2(CC1)Nc1ccccc1N=C2NCc1cccc(Cl)c1` [O/S-370], the “Therapeutic Window (approx.. fold)” value is listed as over 20 fold.
